{"source": "PubChem BioAssay AID1259415", "about": "(National Center for Advancing Translational Sciences (NCATS), 2018)", "note": "Hit rate of the full screen: of about 410,000 compounds, about 18,000 (4.4%) were called active. Inconclusive results, whose numbers are uncertain, are shown with a selection of clear calls. No stated cut-off is given here; in the data, active means activity change below about -60%; inconclusive means no clear call, values can overlap the other calls; inactive means above about -39%. On the % scale 0 is the no-effect control and ±100 the full control effect."}
{"assay": "qHTS Assay for inhibitors of the human cytomegalovirus (HCMV)", "details": "HFF cells, HCMV-luciferase reporter, 72 h; at 57.5 µM; stronger effect = lower value", "in_short": "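Human foreskin fibroblasts infected with luciferase-reporter HCMV at MOI 1 PFU/cell, compounds at two doses. Luciferase measured 72 h post infection; normalized to buffer-only basal and Salinomycin (10uM) controls.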"}
{"smiles": "CC1(C)Cc2ccccc2C(CSc2ccccc2C(=O)O)=N1", "activity change, negative = inhibition": "inconclusive: -53%"}
{"smiles": "CCOC(=O)C(CC)(CCC(=O)O)c1csc(Nc2ccc(C)cc2)n1", "note": "(stereo not given)", "activity change, negative = inhibition": "inactive: -34.4%"}
{"smiles": "C/C(CC(=O)N1CCN(C=O)CC1)=N\\NC(=O)c1ccc(Cl)cc1", "activity change, negative = inhibition": "inactive: -4.42%"}
{"smiles": "CCOC(=O)C1(CCCc2ccccc2)CCN(C(=O)c2cnc(C)cn2)CC1", "activity change, negative = inhibition": "inconclusive: -46.1%"}
{"smiles": "O=C(Nc1ccc2nc(C(F)(F)F)[nH]c2c1)[C@@H]1O[C@H](CO)[C@@H](O)[C@H]1O", "activity change, negative = inhibition": "inactive: -23%"}
{"smiles": "CCC(CC)C(=O)NCc1ccc(OC)cc1", "activity change, negative = inhibition": "inconclusive: -40.6%"}
{"smiles": "CC(=O)NC(=S)Nc1ccc(-c2nc3ccc(C)cc3s2)cc1", "activity change, negative = inhibition": "inactive: 89.5%"}
{"smiles": "COc1ccc(/C=C/C(=O)Nc2ccc3nc4n(c(=O)c3c2)CCCC4)cc1OC", "activity change, negative = inhibition": "inactive: -34.2%"}
{"smiles": "CCC(=NNC(=O)c1ccc2c(c1)nc(C)n2CC)c1cc(F)ccc1O", "activity change, negative = inhibition": "inconclusive: -41.7%"}
{"smiles": "COc1ccc(C(=O)OCCc2sc[n+](CC(=O)c3ccccc3)c2C)cc1", "activity change, negative = inhibition": "inconclusive: -40.8%"}
{"smiles": "Cc1cccc(N2CCN(C(=O)c3ccc4c(c3)OCCO4)CC2)c1C", "activity change, negative = inhibition": "inconclusive: -54.4%"}
{"smiles": "O=S(=O)(c1ccc2nc(-c3ccccc3)[nH]c2c1)N1CCN(c2ccc(Cl)cc2)CC1", "activity change, negative = inhibition": "inconclusive: -40.9%"}
{"smiles": "CCOc1ncccc1C(=O)NCCc1ccc(OC)cc1", "activity change, negative = inhibition": "inconclusive: -40.9%"}
{"smiles": "Cc1ccc(C(=O)N/N=C2\\CCSC2)cc1[N+](=O)[O-]", "activity change, negative = inhibition": "inconclusive: -43.8%"}
{"smiles": "Cc1occc1C(=O)N/N=C/c1c(O)ccc2ccccc12", "activity change, negative = inhibition": "active: -101%"}
{"smiles": "O=C(Cn1cc(S(=O)(=O)Cc2cccc(Cl)c2)c2ccccc21)Nc1ccccc1C(F)(F)F", "activity change, negative = inhibition": "inconclusive: -53.1%"}
{"smiles": "O=C(CSc1nc2c([nH]c3ccccc32)c(=O)n1-c1cccc(Cl)c1)N1CCCC1", "activity change, negative = inhibition": "inactive: 29.2%"}
{"smiles": "COc1cnn(-c2ccc(C)cc2)c(=O)c1SCc1ccccc1", "activity change, negative = inhibition": "inconclusive: -40.6%"}
{"smiles": "O=C(CCN1C(=O)c2ccccc2C1=O)C1=NN[C@@H]2C(=O)N(c3ccc4c(c3)OCCO4)C(=O)[C@H]12", "activity change, negative = inhibition": "inconclusive: -40.3%"}
{"smiles": "O=C(C[n+]1cccc(/C=N/O)c1)NC(=O)Nc1ccccc1", "activity change, negative = inhibition": "inactive: 12.9%"}
{"smiles": "COc1cccc(C(O)Cc2nc3ccccc3n2C)c1OC", "note": "(stereo not given)", "activity change, negative = inhibition": "inactive: 34.8%"}
{"smiles": "CC(C)(C)c1ccc(-c2c(C(=O)O)c(C(=O)O)c3n2CSC3)cc1", "activity change, negative = inhibition": "inconclusive: -59.3%"}
{"smiles": "COCc1nnc(NC(=O)c2cccc(NC(=O)c3ccccc3)c2)s1", "activity change, negative = inhibition": "inactive: 3.02%"}
{"smiles": "COc1ccc(C(=O)NCC(=O)Nc2ccc(-c3ccccc3)cc2)cc1", "activity change, negative = inhibition": "inactive: 9.44%"}
{"smiles": "CCc1nn(CC(=O)N2CC(C)CC(C)C2)c(=O)c2cccn12", "note": "(stereo not given)", "activity change, negative = inhibition": "inconclusive: -40.8%"}
{"smiles": "CC(C)N1CCC(NC(=O)NC2CCCCC2)CC1", "activity change, negative = inhibition": "inconclusive: -44.3%"}
{"smiles": "Cc1ccc(-n2nc3c(c2NC(=O)c2ccco2)CS(=O)(=O)C3)cc1C", "activity change, negative = inhibition": "inactive: 12.1%"}
{"smiles": "CC(=O)c1nn(-c2ccc(Cl)cc2)cc1C(=O)c1ccccc1", "activity change, negative = inhibition": "inconclusive: -52.8%"}
{"smiles": "CCCNC(=O)COC(=O)/C(C#N)=C/c1cc(C)n(CCC)c1C", "activity change, negative = inhibition": "inconclusive: -53.6%"}
{"smiles": "O=[N+]([O-])/C=C1\\CCCCCN1", "activity change, negative = inhibition": "inconclusive: -46.1%"}
{"smiles": "Cn1c(CCNC(=O)c2ccccc2F)nnc1SCC(=O)Nc1nncs1", "activity change, negative = inhibition": "inconclusive: -49%"}
{"smiles": "CCN(Cc1ccncc1)Cc1cn[nH]c1-c1ccc(OC)cc1F", "activity change, negative = inhibition": "inconclusive: -46.6%"}
{"smiles": "COC(=O)c1ccc(OCc2nn[nH]n2)cc1", "activity change, negative = inhibition": "inactive: 17.8%"}
{"smiles": "CCOC(=O)CNC(=O)c1cc2c(=O)oc3ccccc3c2s1", "activity change, negative = inhibition": "inactive: 1.93%"}
{"smiles": "O=C(Nc1ccccc1-c1ccccc1NC(=O)c1ccco1)c1ccco1", "activity change, negative = inhibition": "inactive: -18%"}
{"smiles": "CCCN(CC(=O)Nc1cc(Cl)ccc1Cl)C(=O)c1ccccc1SCC(=O)N1CCCC1", "activity change, negative = inhibition": "inconclusive: -40.3%"}
{"smiles": "Cc1ccc2c(c1)COc1c3ccc(C(=O)NCC4CC4)cc3nn1-2", "activity change, negative = inhibition": "inactive: 34.4%"}
{"smiles": "CN(CC1CCOCC1)C(=O)CC1C(=O)NCCN1Cc1ccccc1F", "note": "(stereo not given)", "activity change, negative = inhibition": "inconclusive: -56%"}
{"smiles": "COc1ccc(C(=O)n2nc(-c3ccco3)nc2N)cc1OC", "activity change, negative = inhibition": "inconclusive: -44%"}
{"smiles": "CCn1c(CN2CCN(c3cccc(C)c3C)CC2)n[nH]c1=S", "activity change, negative = inhibition": "inconclusive: -42.7%"}
{"smiles": "Cc1noc(C)c1NC(=O)Nc1ccc2c(c1)C(=O)N([C@H](C)CO)C[C@H](C)[C@@H](CN(C)C(=O)NC1CCCCC1)O2", "activity change, negative = inhibition": "inconclusive: -43.4%"}
{"smiles": "CC(Sc1nc(-c2ccccc2)cc(C(F)(F)F)n1)C(=O)Nc1ccc2c(c1)OCO2", "note": "(stereo not given)", "activity change, negative = inhibition": "inconclusive: -51.7%"}
{"smiles": "Cc1ccc(NC(=O)Nc2nnc(SCC(=O)N(C(C)C)C(C)C)s2)cc1", "activity change, negative = inhibition": "active: -79.7%"}
{"smiles": "NC(=S)NN=Cc1cc(-c2cccc(N)c2)ccn1", "activity change, negative = inhibition": "active: -99.7%"}
{"smiles": "Cc1cc(C(=O)NC(=S)Nc2ccccc2N2CCCC2)ccc1[N+](=O)[O-]", "activity change, negative = inhibition": "inconclusive: -57.7%"}
